# Source: the supplement of paper PMC11546906
# Counter-ions that a name gives are not always drawn. This is one part of the list. Repeats in this data set agree poorly, so a single value says little.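 Screen of FDA-approved drugs, each combined with colistin at one-eighth of its MIC, against a multidrug-resistant mcr-1-positive clinical E. coli isolate; growth read as OD600 after 24 h. Bacteria without drug were the growth control and plain broth the blank. A combination counted as active when OD600 fell below 0.2.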
# Tested on: Escherichia coli 42 (mcr-1-positive clinical isolate)
# Assay: OD600 after 24 h growth with compound plus colistin (absorbance units (OD600)); higher = more bacterial growth (less inhibition)
# Details: first compound 25 µM; colistin concentration 0.5 ug/mL; incubation time 24 h; 37 °C
row,Structure (SMILES),OD600
1,OCCOCCN1CCN(C2=Nc3ccccc3Sc3ccccc32)CC1 [Quetiapine hemifumarate] + CCC(C)CCCC(=O)N[C@@H](CCN)C(=O)N[C@H](C(=O)N[C@@H](CCN)C(=O)N[C@H]1CCNC(=O)[C@H]([C@@H](C)O)NC(=O)[C@H](CCN)NC(=O)[C@H](CCN)NC(=O)[C@H](CC(C)C)NC(=O)[C@@H](CC(C)C)NC(=O)[C@H](CCN)NC1=O)[C@@H](C)O [colistin],inactive: 0.815
2,CC(C)NCC(O)c1ccc(O)c(O)c1 (centres undefined) [Isoprenaline hydrochloride] + CCC(C)CCCC(=O)N[C@@H](CCN)C(=O)N[C@H](C(=O)N[C@@H](CCN)C(=O)N[C@H]1CCNC(=O)[C@H]([C@@H](C)O)NC(=O)[C@H](CCN)NC(=O)[C@H](CCN)NC(=O)[C@H](CC(C)C)NC(=O)[C@@H](CC(C)C)NC(=O)[C@H](CCN)NC1=O)[C@@H](C)O [colistin],inactive: 1.13
3,OC[C@@H](O)[C@@H](O[C@@H]1O[C@H](CO)[C@H](O)[C@H](O)[C@H]1O)[C@H](O)[C@@H](O)CO [Lactitol monohydrate] + CCC(C)CCCC(=O)N[C@@H](CCN)C(=O)N[C@H](C(=O)N[C@@H](CCN)C(=O)N[C@H]1CCNC(=O)[C@H]([C@@H](C)O)NC(=O)[C@H](CCN)NC(=O)[C@H](CCN)NC(=O)[C@H](CC(C)C)NC(=O)[C@@H](CC(C)C)NC(=O)[C@H](CCN)NC1=O)[C@@H](C)O [colistin],inactive: 1.09
4,Clc1ccc(COC(Cn2ccnc2)c2ccc(Cl)cc2Cl)c(Cl)c1 (centres undefined) [Miconazole] + CCC(C)CCCC(=O)N[C@@H](CCN)C(=O)N[C@H](C(=O)N[C@@H](CCN)C(=O)N[C@H]1CCNC(=O)[C@H]([C@@H](C)O)NC(=O)[C@H](CCN)NC(=O)[C@H](CCN)NC(=O)[C@H](CC(C)C)NC(=O)[C@@H](CC(C)C)NC(=O)[C@H](CCN)NC1=O)[C@@H](C)O [colistin],active: 0.037
5,CCN(CC)CCOc1ccc(C(=C(Cl)c2ccccc2)c2ccccc2)cc1 [Clomiphene citrate] + CCC(C)CCCC(=O)N[C@@H](CCN)C(=O)N[C@H](C(=O)N[C@@H](CCN)C(=O)N[C@H]1CCNC(=O)[C@H]([C@@H](C)O)NC(=O)[C@H](CCN)NC(=O)[C@H](CCN)NC(=O)[C@H](CC(C)C)NC(=O)[C@@H](CC(C)C)NC(=O)[C@H](CCN)NC1=O)[C@@H](C)O [colistin],active: 0.042
6,CNC(=O)c1cc(Oc2ccc(NC(=O)Nc3ccc(Cl)c(C(F)(F)F)c3)c(F)c2)ccn1 [Regorafenib] + CCC(C)CCCC(=O)N[C@@H](CCN)C(=O)N[C@H](C(=O)N[C@@H](CCN)C(=O)N[C@H]1CCNC(=O)[C@H]([C@@H](C)O)NC(=O)[C@H](CCN)NC(=O)[C@H](CCN)NC(=O)[C@H](CC(C)C)NC(=O)[C@@H](CC(C)C)NC(=O)[C@H](CCN)NC1=O)[C@@H](C)O [colistin],inactive: 1.07
7,C#Cc1cccc(Nc2ncnc3cc(OCCOC)c(OCCOC)cc23)c1 [Erlotinib] + CCC(C)CCCC(=O)N[C@@H](CCN)C(=O)N[C@H](C(=O)N[C@@H](CCN)C(=O)N[C@H]1CCNC(=O)[C@H]([C@@H](C)O)NC(=O)[C@H](CCN)NC(=O)[C@H](CCN)NC(=O)[C@H](CC(C)C)NC(=O)[C@@H](CC(C)C)NC(=O)[C@H](CCN)NC1=O)[C@@H](C)O [colistin],inactive: 1.17
8,Cc1c(O)c(=O)ccn1C [Deferiprone] + CCC(C)CCCC(=O)N[C@@H](CCN)C(=O)N[C@H](C(=O)N[C@@H](CCN)C(=O)N[C@H]1CCNC(=O)[C@H]([C@@H](C)O)NC(=O)[C@H](CCN)NC(=O)[C@H](CCN)NC(=O)[C@H](CC(C)C)NC(=O)[C@@H](CC(C)C)NC(=O)[C@H](CCN)NC1=O)[C@@H](C)O [colistin],inactive: 1.04
9,COC(=O)N[C@H](C(=O)N[C@@H](Cc1ccccc1)[C@@H](O)CN(Cc1ccc(-c2ccccn2)cc1)NC(=O)[C@@H](NC(=O)OC)C(C)(C)C)C(C)(C)C [Atazanavir sulfate] + CCC(C)CCCC(=O)N[C@@H](CCN)C(=O)N[C@H](C(=O)N[C@@H](CCN)C(=O)N[C@H]1CCNC(=O)[C@H]([C@@H](C)O)NC(=O)[C@H](CCN)NC(=O)[C@H](CCN)NC(=O)[C@H](CC(C)C)NC(=O)[C@@H](CC(C)C)NC(=O)[C@H](CCN)NC1=O)[C@@H](C)O [colistin],inactive: 1.16
10,CC(C)(C)NCC(O)c1cc(O)cc(O)c1 (centres undefined) [Terbutaline Sulfate] + CCC(C)CCCC(=O)N[C@@H](CCN)C(=O)N[C@H](C(=O)N[C@@H](CCN)C(=O)N[C@H]1CCNC(=O)[C@H]([C@@H](C)O)NC(=O)[C@H](CCN)NC(=O)[C@H](CCN)NC(=O)[C@H](CC(C)C)NC(=O)[C@@H](CC(C)C)NC(=O)[C@H](CCN)NC1=O)[C@@H](C)O [colistin],inactive: 0.722
11,CN(C)CCCN1c2ccccc2CCc2ccc(Cl)cc21 [Clomipramine hydrochloride] + CCC(C)CCCC(=O)N[C@@H](CCN)C(=O)N[C@H](C(=O)N[C@@H](CCN)C(=O)N[C@H]1CCNC(=O)[C@H]([C@@H](C)O)NC(=O)[C@H](CCN)NC(=O)[C@H](CCN)NC(=O)[C@H](CC(C)C)NC(=O)[C@@H](CC(C)C)NC(=O)[C@H](CCN)NC1=O)[C@@H](C)O [colistin],inactive: 1.06
12,COc1ccccc1OCC(O)CO (centres undefined) [Guaifenesin] + CCC(C)CCCC(=O)N[C@@H](CCN)C(=O)N[C@H](C(=O)N[C@@H](CCN)C(=O)N[C@H]1CCNC(=O)[C@H]([C@@H](C)O)NC(=O)[C@H](CCN)NC(=O)[C@H](CCN)NC(=O)[C@H](CC(C)C)NC(=O)[C@@H](CC(C)C)NC(=O)[C@H](CCN)NC1=O)[C@@H](C)O [colistin],inactive: 0.944
13,O=C(O)CCCc1ccccc1 [Sodium 4-phenylbutyrate] + CCC(C)CCCC(=O)N[C@@H](CCN)C(=O)N[C@H](C(=O)N[C@@H](CCN)C(=O)N[C@H]1CCNC(=O)[C@H]([C@@H](C)O)NC(=O)[C@H](CCN)NC(=O)[C@H](CCN)NC(=O)[C@H](CC(C)C)NC(=O)[C@@H](CC(C)C)NC(=O)[C@H](CCN)NC1=O)[C@@H](C)O [colistin],inactive: 1.07
14,CC(=O)OCC(=O)[C@@]1(O)CC[C@H]2[C@@H]3CCC4=CC(=O)C=C[C@]4(C)[C@H]3[C@@H](O)C[C@@]21C [Prednisolone acetate] + CCC(C)CCCC(=O)N[C@@H](CCN)C(=O)N[C@H](C(=O)N[C@@H](CCN)C(=O)N[C@H]1CCNC(=O)[C@H]([C@@H](C)O)NC(=O)[C@H](CCN)NC(=O)[C@H](CCN)NC(=O)[C@H](CC(C)C)NC(=O)[C@@H](CC(C)C)NC(=O)[C@H](CCN)NC1=O)[C@@H](C)O [colistin],inactive: 0.703
15,O=C(O)C(=O)O.[NH-][C@@H]1CCCC[C@H]1[NH-].[Pt+2] [Oxaliplatin] + CCC(C)CCCC(=O)N[C@@H](CCN)C(=O)N[C@H](C(=O)N[C@@H](CCN)C(=O)N[C@H]1CCNC(=O)[C@H]([C@@H](C)O)NC(=O)[C@H](CCN)NC(=O)[C@H](CCN)NC(=O)[C@H](CC(C)C)NC(=O)[C@@H](CC(C)C)NC(=O)[C@H](CCN)NC1=O)[C@@H](C)O [colistin],inactive: 0.987
16,CCn1cc(C(=O)O)c(=O)c2cc(F)c(N3CCNCC3)cc21 [Norfloxacin] + CCC(C)CCCC(=O)N[C@@H](CCN)C(=O)N[C@H](C(=O)N[C@@H](CCN)C(=O)N[C@H]1CCNC(=O)[C@H]([C@@H](C)O)NC(=O)[C@H](CCN)NC(=O)[C@H](CCN)NC(=O)[C@H](CC(C)C)NC(=O)[C@@H](CC(C)C)NC(=O)[C@H](CCN)NC1=O)[C@@H](C)O [colistin],inactive: 0.865
17,CCCCNC(=O)NS(=O)(=O)c1ccc(C)cc1 [Tolbutamide] + CCC(C)CCCC(=O)N[C@@H](CCN)C(=O)N[C@H](C(=O)N[C@@H](CCN)C(=O)N[C@H]1CCNC(=O)[C@H]([C@@H](C)O)NC(=O)[C@H](CCN)NC(=O)[C@H](CCN)NC(=O)[C@H](CC(C)C)NC(=O)[C@@H](CC(C)C)NC(=O)[C@H](CCN)NC1=O)[C@@H](C)O [colistin],inactive: 1.16
18,C[C@@H](NCCCc1cccc(C(F)(F)F)c1)c1cccc2ccccc12 [Cinacalcet hydrochloride] + CCC(C)CCCC(=O)N[C@@H](CCN)C(=O)N[C@H](C(=O)N[C@@H](CCN)C(=O)N[C@H]1CCNC(=O)[C@H]([C@@H](C)O)NC(=O)[C@H](CCN)NC(=O)[C@H](CCN)NC(=O)[C@H](CC(C)C)NC(=O)[C@@H](CC(C)C)NC(=O)[C@H](CCN)NC1=O)[C@@H](C)O [colistin],active: 0.052
19,C[C@@H]1[C@H](O)[C@@H](C)/C=C/C=C/C=C/C=C/C=C/C=C/C=C/[C@H](O[C@@H]2O[C@H](C)[C@@H](O)[C@H](N)[C@@H]2O)C[C@@H]2O[C@](O)(C[C@@H](O)C[C@@H](O)[C@H](O)CC[C@@H](O)C[C@@H](O)CC(=O)O[C@H]1C)C[C@H](O)[C@H]2C(=O)O [Amphotericin B] + CCC(C)CCCC(=O)N[C@@H](CCN)C(=O)N[C@H](C(=O)N[C@@H](CCN)C(=O)N[C@H]1CCNC(=O)[C@H]([C@@H](C)O)NC(=O)[C@H](CCN)NC(=O)[C@H](CCN)NC(=O)[C@H](CC(C)C)NC(=O)[C@@H](CC(C)C)NC(=O)[C@H](CCN)NC1=O)[C@@H](C)O [colistin],inactive: 1.1

# Some of the entries so far, bar-delimited.
row | Structure (SMILES) | OD600
5 | CCN(CC)CCOc1ccc(C(=C(Cl)c2ccccc2)c2ccccc2)cc1 [Clomiphene citrate] + CCC(C)CCCC(=O)N[C@@H](CCN)C(=O)N[C@H](C(=O)N[C@@H](CCN)C(=O)N[C@H]1CCNC(=O)[C@H]([C@@H](C)O)NC(=O)[C@H](CCN)NC(=O)[C@H](CCN)NC(=O)[C@H](CC(C)C)NC(=O)[C@@H](CC(C)C)NC(=O)[C@H](CCN)NC1=O)[C@@H](C)O [colistin] | active: 0.042
11 | CN(C)CCCN1c2ccccc2CCc2ccc(Cl)cc21 [Clomipramine hydrochloride] + CCC(C)CCCC(=O)N[C@@H](CCN)C(=O)N[C@H](C(=O)N[C@@H](CCN)C(=O)N[C@H]1CCNC(=O)[C@H]([C@@H](C)O)NC(=O)[C@H](CCN)NC(=O)[C@H](CCN)NC(=O)[C@H](CC(C)C)NC(=O)[C@@H](CC(C)C)NC(=O)[C@H](CCN)NC1=O)[C@@H](C)O [colistin] | inactive: 1.06
